System: Spiroplasma melliferum B88 membrane
Assay: Membrane protein extraction with detergents, spiroplasmal membrane
Conditions: 75 mM HECAMEG

`CCCCCCCNC(=O)OC[C@H]1O[C@H](OC)[C@H](O)[C@@H](O)[C@@H]1O` [HECAMEG, 6-0 (N-Heptylcarbamoyl) methyl α-D-glucopyranoside] was tested, and the “ratio protein extracted per detergent” value was 26 ug of protein/μmol of detergent.

— patent publication US5223411A, “Nonionic surfactants having a carbamoyl group and process for treatment of a proteins containing medium using the same” (Centre National de la Recherche Scientifique (CNRS), priority 1990, dated 1993)
